Laboratory results: PubChem BioAssay AID686937 (Drosophila RNAi Screening Center, 2013)

Screen: 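Knock-downs that reduce output of a secreted reporter enzyme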 (primary screen)
Cell system: Drosophila S2 cells expressing secreted horseradish peroxidase
Knock-down reagent: long dsRNA against Drosophila genes
Time to read-out: about 5.5 days (5 days dsRNA, then 12 h reporter induction)
Treatment: reporter expression induced after 5 days of dsRNA, read 12 h later; inducer not stated
Detection: 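Chemiluminescent measurement of peroxidase in the medium 12 h after reporter induction, following 5 days of dsRNA, given as a z-score per plate; higher means more secretion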
Scale: z-score: higher = more reporter secreted into medium
The deposit covers about 23,000 reagents; this is an unselected part of those with a known target gene and a result. 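Reduced-secretion tags in replicate 1 do not always agree with the z-scores; no criterion for assigning the tags was given.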 Further read-outs or replicates are left out here. No sequences are given here. Not stated in the record: the amount of reagent.

Target gene | amplicon | z-score, replicate 1 | z-score, replicate 2
CG1227 | DRSC12534 | 0.32 | 0.15
CG6195 | DRSC15989 | 0.39 | 0.57
CG42663 | DRSC06158 | 0.36 | 0.07
CG42663 | DRSC06404 | 0.16 | -0.75
l(1)G0004 (lethal (1) G0004) | DRSC20486 | 0.12 | 0.09
XNP | DRSC15594 | 0.29 | 0.41
wek (weckle) | DRSC03561 | 0.19 | 0.24
ihog (interference hedgehog) | DRSC03157 | 0.35 | 0.22
ND1 (retired record) | DRSC21273 | 0.26 | -0.12
Est-Q (Esterase Q) | DRSC11835 | 0.26 | 0.34
CG17560 | DRSC15242 | 0.55 | 0.55
CTCF | DRSC11004 | 0.49 | 0.25
CG2898 | DRSC18238 | 0.4 | 0.36
CG33309 | DRSC01421 | 0.53 | 0.17
Odj (Oddjob) | DRSC16234 | 0.41 | 0.44
holn1 (hole-in-one) | DRSC02827 | 0.21 | 0.15
holn1 (hole-in-one) | DRSC22822 | 0.65 | -0.12
Sac1 (Sac1 phosphatase) | DRSC08622 | 0.25 | 0.2
Decay (Death executioner caspase related to Apopain/Yama) | DRSC16930 | -0.45 | 0.06
RpL18A (Ribosomal protein L18A) | DRSC07538 | -4.61 | -1.82
Sec31 (Secretory 31) | DRSC07131 | 0.09 | 0.1
CG18636 | DRSC02685 | 0.25 | -0.15
CG11417 | DRSC18581 | -0.11 | -0.24
Rheb (Ras homolog enriched in brain) | DRSC12148 | -3.71 | -4.16
CG10019 | DRSC00279 | 0.01 | 0.1
Tnpo-SR (Transportin-Serine/Arginine rich) | DRSC00546 | -0.27 | 0.22
CG10936 | DRSC05669 | 0.58 | 0.23
CG10936 | DRSC05670 | -0.14 | -0.38
CG10936 | DRSC06018 | -0.02 | 0.23
CG13135 | DRSC02232 | -0.58 | -0.04
CG12985 | DRSC19505 | -0.31 | 0.29
TfIIFalpha (Transcription factor IIFalpha) | DRSC12608 | -3.76 | -3.32
Tpc2 | DRSC04322 | 0.26 | 0.37
CG9399 | DRSC16488 | 0.28 | 0.21
CG7453 | DRSC20046 | 0.32 | 0.41
Imp (IGF-II mRNA-binding protein) | DRSC18857 | 0.59 | 0.56
Imp (IGF-II mRNA-binding protein) | DRSC18861 | 0.17 | 0.87
Imp (IGF-II mRNA-binding protein) | DRSC20255 | 0.42 | 0.22
Imp (IGF-II mRNA-binding protein) | DRSC21907 | 0.17 | -0.02
mim (missing-in-metastasis) | DRSC05013 | -1.67 | -1.49
ecd (ecdysoneless) | DRSC08574 | -0.47 | -0.04
ouib (ouija board) | DRSC14376 | 0.26 | 0.22
CG10939 | DRSC06019 | -0.45 | -0.14
CG10939 | DRSC21734 | 3.26 | -0.15
l(2)k05911 (lethal (2) k05911) | DRSC02523 | 0.73 | 0.66
Lcp65Ag3 (Larval cuticle protein) | DRSC10345 | 0.19 | 0.31
Nil (Nilkantha) | DRSC15953 | -0.04 | -0.1
CG7381 | DRSC16238 | 0.31 | 0.43
Cpr72Ea (Cuticular protein 72Ea) | DRSC10451 | 0.27 | 0.34
Cpr72Eb (Cuticular protein 72Eb) | DRSC09870 | 0.08 | 0.4
CG14339 | DRSC00369 | 0.03 | 0.12
CG11563 | DRSC14327 | 0.52 | 0.31

Entries listed so far whose gene name starts with I or i:
Target gene | amplicon | z-score, replicate 1 | z-score, replicate 2
ihog (interference hedgehog) | DRSC03157 | 0.35 | 0.22
Imp (IGF-II mRNA-binding protein) | DRSC18857 | 0.59 | 0.56
Imp (IGF-II mRNA-binding protein) | DRSC18861 | 0.17 | 0.87
Imp (IGF-II mRNA-binding protein) | DRSC20255 | 0.42 | 0.22
Imp (IGF-II mRNA-binding protein) | DRSC21907 | 0.17 | -0.02

The results go on:
Target gene | amplicon | z-score, replicate 1 | z-score, replicate 2
fal (falten) | DRSC11087 | 0.25 | 0.44
CG4757 | DRSC14130 | 0.39 | 0.2
CG11248 | DRSC11644 | 0.3 | 0.17
CG3345 | DRSC00596 | 0.38 | 0.52
Obp85a (Odorant-binding protein 85a) | DRSC14362 | 0.33 | -0.02
CG5250 | DRSC15752 | 0.16 | 0.37
CG17475 | DRSC15238 | 0.23 | 0.33
CG10053 | DRSC12502 | 0.37 | 0.18
Taf11 (TBP-associated factor 11) | DRSC03448 | -0.66 | -0.47
CG16813 | DRSC02520 | 0.33 | 0.5
CG7135 | DRSC20026 | 0.06 | 0.47
CG10730 | DRSC02102 | 0.57 | 0.52
Ir48c (Ionotropic receptor 48c) | DRSC06154 | -2.37 | -1.84
CG4860 | DRSC15664 | 0.23 | 0.38
CG4860 | DRSC21755 | -0.57 | 0.12
CG13344 | DRSC06378 | 0.33 | 0.32
Mps1 (Monopolar spindle 1) | DRSC16273 | 0.06 | 0.19
sturkopf | DRSC08637 | 0.45 | 0.23
CG33270 | DRSC10584 | -0.04 | -0.1
CG32071 | DRSC22298 | -1.17 | -0.18
ATPsynepsilonL (ATP synthase, epsilon subunit-like) | DRSC14548 | 0.09 | -0.66
CG31087 | DRSC14253 | 0.1 | -0.01
CG15446 | DRSC20518 | 0.17 | 0.02
TfIIS (RNA polymerase II elongation factor) | DRSC03455 | -0.77 | -0.42
LeuRS-m (Leucyl-tRNA synthetase, mitochondrial) | DRSC08595 | 0.52 | 0.51
Oatp33Eb (Organic anion transporting polypeptide 33Eb) | DRSC02955 | 0.29 | 0.17
Orct (Organic cation transporter) | DRSC16777 | 0.32 | 0.29
lncRNA:CR9284 (long non-coding RNA:CR9284) | DRSC03899 | 0.56 | 0.46
lncRNA:CR9284 (long non-coding RNA:CR9284) | DRSC04536 | 0.21 | 0.43
Dip-C (Dipeptidase C) | DRSC15855 | 0.35 | 0.49
lqf (liquid facets) | DRSC11363 | 0.45 | 0.55
Drak (Death-associated protein kinase related) | DRSC19778 | 0.15 | -0.5
Rh6 (Rhodopsin 6) | DRSC16823 | 0.46 | 0.37
lncRNA:CR40053 (long non-coding RNA:CR40053) | DRSC20833 | 0.03 | 0.34
CG43317 | DRSC15000 | 0.17 | 0.56
MED10 (Mediator complex subunit 10) | DRSC10474 | -4.57 | -5.24
CG33306 | DRSC01899 | 0.21 | 0.06
DCP2 (Decapping protein 2) | DRSC09399 | 0.22 | 0.36
DCP2 (Decapping protein 2) | DRSC10597 | -0.15 | -0.36
HnRNP-K (Heterogeneous nuclear ribonucleoprotein K) | DRSC07585 | 0.28 | -0.03
HnRNP-K (Heterogeneous nuclear ribonucleoprotein K) | DRSC22734 | 0.33 | 0.46
CG12680 | DRSC17871 | 0.1 | 0.37
CG15213 | DRSC10213 | -1.09 | -0.02
CG14448 | DRSC11705 | 0.16 | 0.42
CG34427 | DRSC09978 | 0.26 | 0.11
Wdr37 (WD repeat domain 37) | DRSC14500 | 0.1 | 0.27
Cyp28c1 (Cytochrome P450 28c1) | DRSC20236 | 0.21 | 0.25
Adgf-A (Adenosine deaminase-related growth factor A) | DRSC10566 | 0.26 | 0.35
OS9 (Olfactory-specific 9) | DRSC02700 | 0.38 | 0.4
Snp (Snipper) | DRSC04524 | 0.08 | 0.44
Snp (Snipper) | DRSC21538 | 0.14 | 0.35
CG43111 | DRSC05796 | 0.1 | 0.42
